Results of single-concentration screens

Protein sequences, listed by entry. Tags and fused reporters are not part of them. Residues count along the entry.
UniProt Q4DA54, 1-478: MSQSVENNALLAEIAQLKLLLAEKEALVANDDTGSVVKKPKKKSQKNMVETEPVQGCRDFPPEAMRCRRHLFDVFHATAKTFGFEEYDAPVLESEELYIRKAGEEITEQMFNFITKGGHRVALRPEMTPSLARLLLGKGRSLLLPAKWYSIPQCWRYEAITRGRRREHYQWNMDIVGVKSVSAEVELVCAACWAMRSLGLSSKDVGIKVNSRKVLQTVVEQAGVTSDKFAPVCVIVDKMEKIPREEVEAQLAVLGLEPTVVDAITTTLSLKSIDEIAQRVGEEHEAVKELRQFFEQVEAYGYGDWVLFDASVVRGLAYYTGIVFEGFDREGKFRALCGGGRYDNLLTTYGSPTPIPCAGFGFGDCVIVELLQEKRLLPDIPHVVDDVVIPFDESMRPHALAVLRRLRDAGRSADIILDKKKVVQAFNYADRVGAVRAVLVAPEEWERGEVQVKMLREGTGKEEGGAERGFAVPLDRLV
UniProt P9WNZ1, whole entry: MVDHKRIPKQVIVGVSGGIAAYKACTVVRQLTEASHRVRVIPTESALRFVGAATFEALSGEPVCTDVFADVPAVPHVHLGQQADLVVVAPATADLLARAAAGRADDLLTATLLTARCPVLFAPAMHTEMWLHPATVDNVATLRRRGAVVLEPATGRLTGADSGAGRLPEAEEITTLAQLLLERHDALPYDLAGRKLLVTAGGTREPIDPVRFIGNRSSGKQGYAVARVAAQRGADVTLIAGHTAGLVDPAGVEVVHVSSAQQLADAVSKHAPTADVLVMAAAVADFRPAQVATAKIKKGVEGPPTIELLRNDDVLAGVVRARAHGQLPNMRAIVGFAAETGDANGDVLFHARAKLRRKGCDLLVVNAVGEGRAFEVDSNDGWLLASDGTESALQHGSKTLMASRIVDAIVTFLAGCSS
UniProt A4I591, 1-473: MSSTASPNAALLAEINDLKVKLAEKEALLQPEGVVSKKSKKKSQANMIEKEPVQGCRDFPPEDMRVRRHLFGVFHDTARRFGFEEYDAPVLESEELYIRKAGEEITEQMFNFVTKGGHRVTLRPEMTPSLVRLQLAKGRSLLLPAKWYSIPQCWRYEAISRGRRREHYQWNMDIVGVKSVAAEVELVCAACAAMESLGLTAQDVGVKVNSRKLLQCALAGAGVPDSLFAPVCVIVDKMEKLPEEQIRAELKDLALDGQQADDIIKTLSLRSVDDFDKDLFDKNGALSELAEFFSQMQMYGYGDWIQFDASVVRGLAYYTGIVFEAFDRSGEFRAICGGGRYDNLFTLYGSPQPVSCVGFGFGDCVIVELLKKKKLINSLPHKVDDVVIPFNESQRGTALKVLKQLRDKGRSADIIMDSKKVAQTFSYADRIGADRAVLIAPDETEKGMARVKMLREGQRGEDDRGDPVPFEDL

Source: ChEMBL document CHEMBL3988442, “University of Dundee, Small-Polar-MMV Screening Library” (2021).

Results are given as percent effect.
The record does not define 0% and 100%; most values in the screen are far below 50% and negative numbers occur (in some assays of this library far below -100).
The compounds are a random part of those screened.
Two or more numbers in one place are separate tests of the same structure; such repeats can differ widely.
A dash means the value is not listed here; it may have been measured.

TcHisRS: 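Enzyme assay of histidyl-tRNA synthetase; the read-out is not stated. Target: Histidine-tRNA ligase, Trypanosoma cruzi CL Brener (UniProt Q4DA54). Tested at 30 µM. Direction is inferred from retests: higher values go with stronger inhibition. Of about 69,000 compounds tested this way, about 31 (0.045%) reached 50% or more in at least one test.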
Leishmania in macrophages: 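Cell assay of Leishmania donovani living inside macrophages; the read-out is not stated. Concentration: 30 µM. Direction is inferred from retests: higher values go with stronger inhibition. Of about 69,000 compounds tested this way, about 1,000 (1.5%) reached 50% or more in at least one test.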
Toxoplasma: 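Assay of Toxoplasma gondii numbers, read through their beta-galactosidase reporter with a colour substrate. Compounds at 10 µM. The record gives no direction; the compounds picked for IC50 retests had high values, so higher reads as fewer parasites. About 67,000 compounds were tested under these conditions; 0.38% (about 260) showed 50% or more at least once.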
CoaBC: 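Coenzyme A biosynthesis protein CoaBC, Mycobacterium tuberculosis (UniProt P9WNZ1). Enzyme assay of CoaBC with a phosphate dye (Biomol Green) read at 650 nm. Tested at 30 µM. Higher reads as stronger inhibition, judged from the few compounds that gave an IC50. Most strong results did not repeat in a second test. Size under these conditions: about 67,000 compounds, about 40 of them at 50% or above in at least one test.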
LiHisRS: 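Histidine-tRNA ligase, Leishmania infantum (UniProt A4I591). Enzyme assay of histidyl-tRNA synthetase; the read-out is not stated. Tested at 30 µM. The record gives no direction; compounds that gave an IC50 in retests scored well above the rest, so higher reads as stronger inhibition. The assay is labelled LdHisRS but filed under L. infantum. Size under these conditions: about 69,000 compounds, about 410 of them at 50% or above in at least one test.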

compound	TcHisRS	Leishmania in macrophages	Toxoplasma	CoaBC	LiHisRS
COc1cc(N2C[C@@H]3COC[C@]3(COc3ccc(C#N)cn3)C2)ncn1	-0.5525	-	-	7.969	-9.023
[H][C@@]12CCCCCN(C(C)=O)[C@@]1([H])[C@H](c1cccc(F)c1)CN2C(C)=O	-	-4.063	19.32	-	-
[H][C@@]12CN(C(=O)c3ccc[nH]3)C[C@]1([H])C(=O)N(Cc1cccc(F)c1)C2	-	-5.214	-0.3765	-	-
Cc1ccc(-c2cccc(-c3ccn(CCN4CCCC4)n3)c2)nn1	9.167	29.27	-1.847	-4.904	7.692
COCCN1CCc2cc(C(=O)NCC3CC3)c(NC(C)C)nc2CC1.O=C(O)C(F)(F)F.O=C(O)C(F)(F)F	-	30.55	4.487	-	-
[H][C@]12CC[C@]([H])(CC(=O)NC1)N2C1CCOCC1	-	32.52	5.808	-	-
CC(C)Oc1cc(N2CC[C@H](CO)[C@@H](O)C2)nc(N)n1	2.116	1.621	14.31	6.509	6.061
COc1cc(Cl)ccc1C(=O)N1CCCC(c2cc(C)[nH]n2)C1 (stereo not given)	6.105	-3.714	15.25	-5.937	-44.74
O=C(CNC(=O)c1c[nH]c2ccccc12)NCCCn1ccnc1	2.062	3.745 & 8.603	6.692	1.903	19.13
Cc1ccc(C)c(-c2[nH]c3ccccc3c2C(=O)O)c1	1.775	8.99	7.079	-4.474	-19.31
CCC(=O)NCC(=O)NCC(C)(C)c1cccc(Br)c1	0	7.92	-1.955	0.4016	28.36
[H][C@]12CCCCN1CCC[C@H]2CN(C)Cc1nc2ccccc2c(=O)[nH]1	-	16.59	-21.27	-	-
Cc1cccc(CN2CCC(N(C)Cc3nnc(C4CC4)n3C)C2)c1 (stereo not given)	8.14	39.04	0.4187	-36.62	5.357
COC(=O)C1CCCN1C(=O)c1ccc(Cl)cc1F (stereo not given)	1.604	23.98	3.933	-5.217	12.04
CCc1nnsc1C(=O)N1CCCC(n2ccnc2C(C)C)C1 (stereo not given)	3.468	-3.802	-6.25	1.434	-0.8772
[H][C@]12C[C@@H](Cn3cccn3)N(C)[C@@]1([H])CCN(C(=O)Cc1cccs1)C2	-	7.787	2.323	-	-
CCS(=O)(=O)N1CCc2nc(N3CCOCC3)nc(N(C)C)c2CC1	3.797	5.571	1.672	-	17.24
O=C(c1cc(C2CC2)on1)N1C[C@H]2CC[C@](O)(c3ccc(F)cc3)[C@H]2C1	4.52	-	-	-11.38	9.79
COC(=O)c1cc(OCC2CCC2)cc(C(=O)N[C@H]2CC[C@H](O)CC2)c1	3.306	-18.47	0.7663	-9.168	5.769
CCC[C@@H]1CN(c2ncnc3sccc23)C[C@H]1C(=O)O	3.867	19.26	2.876	-10.27	7.292
COCCN1C(=O)CCC12CCCN(c1ncc(F)cn1)CC2 (stereo not given)	5.376	-37.45 & -2.198	-3.499	-3.158	15.04
CN(C)c1ncc(-c2ccc(F)cc2)c(C2CNCCO2)n1 (stereo not given)	4.857	-	-	5.023	10.74
CCC(=O)Nc1ccc(C(C)NC(=O)COCCOC)cc1 (stereo not given)	1.087	16.53	1.86	6.613	22.86
CN(C)[C@@H]1CCN(C(=O)c2ccco2)[C@H]1Cc1cnn(C)c1	7.143	-	-	4.574	13
NCCc1cccc(CN2CCN(c3ccccc3)C(=O)C2)c1	37.6	19.93	-12.75	-17.53	55.74
OCc1cnc(Nc2ccccc2)nc1	0	-6.544	5.951	4.833	-4.167
Cc1ncsc1C(=O)NCc1ccc(-c2n[nH]cc2C(=O)N(C)C)cc1	5.747	22.74	9.847	-1.435	5.755
CC(C)C(=O)N1CCN(S(=O)(=O)C2CC2)CC2(CC(=O)N(C)C2)C1 (stereo not given)	-2.299	16.75	7.979	4.277	2.632
NC(=O)Cn1c(CO)cnc1SCC(=O)NCc1ccccc1Cl	2.591	-6.657	5.346	-0.1122	17.2
CC[C@@]1(O)CCN(c2ncc(Cl)cc2C(F)(F)F)C[C@H]1O	-0.578	-32.76	-1.602	-0.7444	-4.255
COCc1cccc(S(=O)(=O)Nc2ncc(C)s2)c1	5.699	-45.63	7.82	-18.49	10.11
Cc1[nH]c(=O)[nH]c(=O)c1CN1CCCC(CCc2ccccc2F)C1 (stereo not given)	2.326	-39.76	-2.609	-5.15	14.75
CSCCCN1C[C@H]2CC[C@@H]1CN(Cc1[nH]cnc1C)C2	0	-	-	1.118	20.83
COc1ccccc1C(NCc1ccc(SC)cc1)c1nccn1C (stereo not given)	7.289	25.75	-7.949	7.347	22.02
CC(C)c1cc(CN2CCC(N)CC2)on1	-3.468	10.45	19.08	-5.521	-2.062
Cc1csc(C2CCCN(C(=O)c3c[nH]c(C)n3)C2)n1 (stereo not given)	4.36	27.25	-21.34	0.3492	6.14
Cc1cc(NC(=O)NCCc2ccccc2)n(C)n1	-1.058	-4.25	6.304	9.27	18.18
COCc1cnc2n1CCN(C(=O)C1=CCCC1)C2C (stereo not given)	6.098	-8.23	9.971	4.01	12.82
Cc1ccc(-c2cn3c(n2)CO[C@@H](CNCc2nccn2C)C3)cc1	2.174	14.64	-2.554	-11.7	25.68
CC(C)N1[C@H](Cn2cncn2)C[C@@H]2CN(Cc3ccsc3)CC[C@@H]21	0	-	-	4.926	16
CC(C)=CCN1CC2(CCN(Cc3cccc(C#N)c3)CC2)CC1=O	8.442	-12.48	0.1827	-1.33	8.065
CCOCC1CN(Cc2cccnc2OC)Cc2cnn(C)c21.O=C(O)C(F)(F)F.O=C(O)C(F)(F)F.O=C(O)C(F)(F)F (stereo not given)	-	6.715 & -61.51	-1.693	-	-
CN(C)C[C@H]1C[C@H](CO)CN(C(=O)c2cc(S(N)(=O)=O)ccc2F)C1	5.155	11.48	19.98	11.65	2.857
CN(CCc1ccccn1)C(=O)c1cn(CCN2CCNCC2)nn1	2.762	20.42	-0.8038	-11.17	14.46
N[C@@H]1c2ccccc2C2(CCN(C(=O)c3ccccc3O)CC2)[C@H]1O	1.667	8.15	0.3367	-2.316	7.547
COc1ccc2c(c1)CC(C(=O)N(C)CCCc1cnn(C)c1)CO2 (stereo not given)	0.5236	31.98	1.095	-10.91	3.226
Cc1cc(C2CCC2)nc(N2CCC3(CC2)OCCCC3O)n1 (stereo not given)	10.08	-5.341	3.243	3.24	13.22
COCCN1CC[C@@H]2OC[C@H](C(=O)N(C)Cc3ccccn3)C[C@@H]2C1	2.21	-	-	3.465	2.703
Cn1nccc1C(=O)N1C[C@@H]2CN(S(C)(=O)=O)CCO[C@@H]2C1	14.44	-	-	2.195	18.87
CC(Nc1ncnc2c1CCNC2)c1ccc2c(c1)CCCC2 (stereo not given)	20.69	82.26	-	10.95	30.65
O=C(CN1CCN(CC(O)C2CC2)CC1)NCc1ccc(F)cc1 (stereo not given)	7.609	-	-	2.915	22.33
CCOc1ccc(C2CCCN2Cc2nnnn2C2CC2)cc1 (stereo not given)	0.4464	1.963	24.62	-2.806	20.99
CCOc1cccc(C(=O)N2CCC(c3n[nH]c(C4CC4)n3)CC2)c1	2.817	35.82	-3.916	4.962	16.52
Cc1ccc(CN(CCN(C)C)C(=O)Nc2cc(C(N)=O)ccc2C)s1	2.128	25.96	0	-24.39	-10
CNC(=O)CCN1CCC(c2nnc(Cn3cccn3)n2C2CC2)CC1	4.911	4	13.46	2.551	8.642
COc1cccc(C2=CCN(CCN3CCOC3=O)CC2)c1	6.349	-40.67	-5.128	-3.512	-8.219
Cn1c(C2CC2)nc2c1CCN(Cc1nc3ccccc3s1)C2	3.509	-78.9	17.77	0.1148	14.16

7 of the entries, repeated:

- COc1ccccc1C(NCc1ccc(SC)cc1)c1nccn1C (stereo not given) : TcHisRS: 7.289%; Leishmania in macrophages: 25.75%; Toxoplasma: -7.949%; CoaBC: 7.347%; LiHisRS: 22.02%
- O=C(c1cc(C2CC2)on1)N1C[C@H]2CC[C@](O)(c3ccc(F)cc3)[C@H]2C1 : TcHisRS: 4.52%; CoaBC: -11.38%; LiHisRS: 9.79%
- O=C(CNC(=O)c1c[nH]c2ccccc12)NCCCn1ccnc1 : TcHisRS: 2.062%; Leishmania in macrophages: 3.745% & 8.603%; Toxoplasma: 6.692%; CoaBC: 1.903%; LiHisRS: 19.13%
- NCCc1cccc(CN2CCN(c3ccccc3)C(=O)C2)c1 : TcHisRS: 37.6%; Leishmania in macrophages: 19.93%; Toxoplasma: -12.75%; CoaBC: -17.53%; LiHisRS: 55.74%
- CNC(=O)CCN1CCC(c2nnc(Cn3cccn3)n2C2CC2)CC1 : TcHisRS: 4.911%; Leishmania in macrophages: 4%; Toxoplasma: 13.46%; CoaBC: 2.551%; LiHisRS: 8.642%
- COCCN1CC[C@@H]2OC[C@H](C(=O)N(C)Cc3ccccn3)C[C@@H]2C1 : TcHisRS: 2.21%; CoaBC: 3.465%; LiHisRS: 2.703%
- [H][C@@]12CCCCCN(C(C)=O)[C@@]1([H])[C@H](c1cccc(F)c1)CN2C(C)=O : Leishmania in macrophages: -4.063%; Toxoplasma: 19.32%